{"source": "paper PMC3958334", "binders": {"B1": {"name": "GFP-FGOP2 (protein, UniProt Q9VM65 1-315)", "chain": "MSNLSVGQIIMDAQRMASRVKDLDALGTALLEEAENNNRLVESLRQYQDDIESLNRISNNKTNADMVNRIQQQNINSSEILKENRELKIFIEDYERAMELMMQKYREHTVSKVLDSKFSFKELYNERMWQVIREQREKINEMAAVMQLAASVDDGVVQRELQTISQLRLENETLRELLQISKQYGSSQRPIRESDHLLEEKAVQTDSTADDSADDLSISGASVENMNNNSVIQMYSSPEQPAKVAGTTNSFNTAPVHSQSETQAPSVTLETAPPGEEPLANDNNNGPAVNTTSAPPPATTSNESVEDQATVAPAT"}}, "target": "T1, HSV-MOB4 (Drosophila) (UniProt Q7K0E3)", "T1 sequence": "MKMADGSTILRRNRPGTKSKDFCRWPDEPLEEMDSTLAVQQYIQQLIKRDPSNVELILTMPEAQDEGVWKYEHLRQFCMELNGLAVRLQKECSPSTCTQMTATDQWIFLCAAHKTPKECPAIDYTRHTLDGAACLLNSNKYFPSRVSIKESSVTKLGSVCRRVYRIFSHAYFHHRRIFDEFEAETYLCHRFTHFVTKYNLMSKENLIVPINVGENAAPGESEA", "assay": "co-IP; S2 cells transfected with plasmids for two tagged STRIPAK proteins (binary co-expression); lysates immunoprecipitated with anti-HA or anti-HSV; immunoblot of immunoprecipitates and lysates", "note": "No constants are given. Whether binding was seen depends on the method and setting. Binding seen in cells or lysates may run through a third protein. Some entries that bind do so weakly or less than the wild type. Sequences can lack the tags named with a protein.", "data": [{"binder": "B1", "values": [{"measurement": "binding", "value": "binds"}]}]}
